Test results reported in US20250340646A1.
These are yes or no findings as the source states them, for the method shown. Some results given as binding are weak or reduced against the parent protein; the word gives no strength. Blank lines part the entries; values can stand above or below the binder they belong to.

The chains behind the UniProt entries cited, without tags or fusion partners. Where a name states a change or a piece, a line headed by the entry shows the natural chain unless it says otherwise.
UniProt Q9NZQ7: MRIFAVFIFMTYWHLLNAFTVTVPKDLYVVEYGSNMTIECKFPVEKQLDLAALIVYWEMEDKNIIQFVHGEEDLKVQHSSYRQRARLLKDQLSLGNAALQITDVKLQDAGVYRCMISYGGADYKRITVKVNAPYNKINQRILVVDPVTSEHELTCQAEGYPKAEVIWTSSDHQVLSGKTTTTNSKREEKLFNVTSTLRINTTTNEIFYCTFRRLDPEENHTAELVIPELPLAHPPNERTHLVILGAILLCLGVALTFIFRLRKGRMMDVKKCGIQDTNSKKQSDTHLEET

Target: full-length human PD-L1 on K562 cells (human) (UniProt Q9NZQ7)
Experiment: FACS on K562 cells expressing human PD-L1, scFv titrated

binding: binds
B1: 2018EP173-H11 scFv (scFv, V domains shown, not shown: small tags and cut ends)
VH: QVQLVQSGGGLVKPGGSLRLSCAASGFTFSSYSMNWVRQAPGKGLEWVSSISSSSSYIYYADSVKGRFTISRDNAKNSLYLQMNSLKAEDTAVYYCARDSLQWLALDYWGQGTLVTVSS
VL: QPVLTQPPSVSVAPGETATITCGGNNIGRKSVHWYLQKPGQAPVLVIGHDTDRPSGIPARFSGSNSGNTATLTINRVEAGDEADYYCQVWDTSGHHYVFGTGTKVTVL

binding: binds
B2: 2018EP280-E01 scFv (scFv, V domains shown, not shown: small tags and cut ends)
VH: EVQLVESGGGLVKPGGSLRLSCAASGLTFSNAWMSWVRQAPGKGLEWVGRIKSKTDGGTTEYAAPVKGRFTISRDDSKNTLYLQMSSLKTEDTAVYYCTIVYYYDSSGPVFFQHWGQGTLVTVSS
VL: QSVLTQPPSASATPGQRVTISCSGSDSNIATNYVYWYQQFPGTAPKLLIYRNHQRPSGVPDRFSGSRSGTSASLAISGLRSEDEADYYCATWDDSVNSWVFGGGTKLTVL
